Literature values in patent US9050475B2, “High SPF sunscreen compositions” (MD SOLARSCIENCES CORP., priority 2010, dated 2015).
For at least one compound, name, drawing or mass did not settle the structure.

Conditions: known UV-A or UV-B protection properties of FDA-approved sunscreens

Q: Which “Range Covered” value does the source give for CCCCC(CC)COC(=O)C=Cc1ccc(OC)cc1 (stereo not shown) [Octinoxate, Octyl Methoxycinnamate] here?
A: UV-B (UV-B: 290-320 nm)
